Source: the supplement of paper PMC6078165

Test system: MDAMB436
Experiment: relative JC-1 red fluorescence (viability) vs pre-drug, coculture with fibroblast (fraction); higher = more viable cancer cells
Experimental: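 JC-1 labelled TNBC cells cocultured 1:1 (1,500 cells each) with CellTrace Violet stained primary or stromal fibroblasts in 384-well plates in FluoroBrite medium, treated with one of 42 anticancer drugs at 0.1, 1, 10 or 100 uM. JC-1 red fluorescence (mitochondrial integrity in cancer cells only) was read by plate reader every 8 h for 72 h. Values are normalised to each well's pre-drug value. The stock of one drug was tenfold lower, so its dose labels may be too high.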

CC(C)(C#N)c1cc(Cn2cncn2)cc(C(C)(C)C#N)c1 [Anastrozole]
relative JC-1 red fluorescence
Settings | 8 h | 16 h | 24 h | 32 h | 40 h | 48 h | 56 h | 64 h | 72 h
0.1 µM, coculture fibroblast: C12385 | 0.758 | 0.675 | 0.64 | 0.548 | 0.501 | 0.473 | 0.454 | 0.439 | 0.431
0.1 µM, coculture fibroblast: H6013 | 0.768 | 0.732 | 0.717 | 0.706 | 0.695 | 0.719 | 0.682 | 0.667 | 0.635
0.1 µM, coculture fibroblast: H6019 | 0.7302 | 0.6761 | 0.638 | 0.5513 | 0.507 | 0.471 | 0.434 | 0.401 | 0.371
0.1 µM, coculture fibroblast: H6076 | 0.707 | 0.643 | 0.609 | 0.578 | 0.562 | 0.539 | 0.548 | 0.538 | 0.531
0.1 µM, coculture fibroblast: H6231 | 0.71214 | 0.635 | 0.6529 | 0.5825 | 0.5736 | 0.547 | 0.545 | 0.527 | 0.508
0.1 µM, coculture fibroblast: HADF | 0.806 | 0.7328 | 0.709 | 0.676 | 0.66 | 0.679 | 0.626 | 0.62 | 0.584
0.1 µM, coculture fibroblast: HCFa | 0.758 | 0.715 | 0.685 | 0.646 | 0.617 | 0.622 | 0.558 | 0.541 | 0.49
0.1 µM, coculture fibroblast: HCPF | 0.7667 | 0.695 | 0.669 | 0.6 | 0.5845 | 0.551 | 0.528 | 0.51 | 0.493
0.1 µM, coculture fibroblast: HHSteC | 0.807 | 0.814 | 0.793 | 0.769 | 0.757 | 0.775 | 0.708 | 0.685 | 0.627
0.1 µM, coculture fibroblast: HMF | 0.704 | 0.6379 | 0.6057 | 0.5605 | 0.547 | 0.509 | 0.516 | 0.496 | 0.495
0.1 µM, coculture fibroblast: HPFa | 0.882 | 0.81 | 0.757 | 0.695 | 0.663 | 0.656 | 0.577 | 0.542 | 0.475
0.1 µM, coculture fibroblast: HUF | 0.83 | 0.694 | 0.659 | 0.584 | 0.535 | 0.509 | 0.484 | 0.475 | 0.468
0.1 µM, coculture fibroblast: Hs5 | 0.746 | 0.696 | 0.681 | 0.634 | 0.616 | 0.579 | 0.586 | 0.55 | 0.537
0.1 µM, coculture fibroblast: Hs27A | 0.88 | 0.841 | 0.84 | 0.841 | 0.836 | 0.775 | 0.782 | 0.798 | 0.729
0.1 µM, coculture fibroblast: Hs343T | 0.754 | 0.669 | 0.61 | 0.553 | 0.522 | 0.49 | 0.478 | 0.46 | 0.45
0.1 µM, coculture fibroblast: WS1 | 0.7461 | 0.66 | 0.611 | 0.515 | 0.473 | 0.436 | 0.411 | 0.381 | 0.37
1 µM, coculture fibroblast: C12385 | 0.812 | 0.704 | 0.664 | 0.581 | 0.529 | 0.5 | 0.479 | 0.461 | 0.452
1 µM, coculture fibroblast: H6013 | 0.872 | 0.792 | 0.771 | 0.771 | 0.76 | 0.778 | 0.739 | 0.724 | 0.681
1 µM, coculture fibroblast: H6019 | 0.7454 | 0.63266 | 0.602 | 0.528 | 0.485 | 0.471 | 0.436 | 0.406 | 0.377
1 µM, coculture fibroblast: H6076 | 0.782 | 0.653 | 0.645 | 0.616 | 0.595 | 0.581 | 0.599 | 0.61 | 0.606
1 µM, coculture fibroblast: H6231 | 0.7847 | 0.7 | 0.674 | 0.634 | 0.602 | 0.574 | 0.545 | 0.514 | 0.487
1 µM, coculture fibroblast: HADF | 0.826 | 0.746 | 0.694 | 0.655 | 0.627 | 0.631 | 0.579 | 0.569 | 0.532
1 µM, coculture fibroblast: HCFa | 0.7872 | 0.71 | 0.665 | 0.642 | 0.612 | 0.628 | 0.564 | 0.547 | 0.493
1 µM, coculture fibroblast: HCPF | 0.806 | 0.702 | 0.648 | 0.6023 | 0.574 | 0.537 | 0.507 | 0.487 | 0.462
1 µM, coculture fibroblast: HHSteC | 0.912 | 0.818 | 0.779 | 0.77 | 0.759 | 0.751 | 0.706 | 0.673 | 0.611
1 µM, coculture fibroblast: HMF | 0.757 | 0.645 | 0.638 | 0.611 | 0.592 | 0.564 | 0.561 | 0.559 | 0.545
1 µM, coculture fibroblast: HPFa | 0.89 | 0.829 | 0.802 | 0.767 | 0.752 | 0.757 | 0.676 | 0.645 | 0.561
1 µM, coculture fibroblast: HUF | 0.821 | 0.716 | 0.679 | 0.608 | 0.552 | 0.522 | 0.497 | 0.475 | 0.461
1 µM, coculture fibroblast: Hs5 | 0.785 | 0.68795 | 0.6744 | 0.6256 | 0.617 | 0.578 | 0.585 | 0.568 | 0.554
1 µM, coculture fibroblast: Hs27A | 0.76494 | 0.675 | 0.622 | 0.599 | 0.562 | 0.608 | 0.525 | 0.501 | 0.431
1 µM, coculture fibroblast: Hs343T | 0.751 | 0.615 | 0.57 | 0.5296 | 0.5 | 0.468 | 0.4591 | 0.4493 | 0.4436
1 µM, coculture fibroblast: WS1 | 0.8008 | 0.694 | 0.6409 | 0.5663 | 0.5209 | 0.5 | 0.474 | 0.447 | 0.434

Values are relative to the signal before dosing, not to a vehicle control; the signal also falls without drug.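 Fibroblast labels name human fibroblasts: mostly primary ones from tissues such as uterus (C12385, HUF), lung (H6013), bone (Hs27A), adrenal (HADF) and skin (WS1), plus mammary HMF and breast cancer-associated Hs343T. The cancer cells are basal-like or mesenchymal-like triple-negative breast cancer lines. The paper calls a changed response a hit when it shifts by more than 3x the replicate standard deviation. The tissue of the other fibroblasts is not given here.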
